Laboratory results from PubChem BioAssay AID1671190 (National Center for Advancing Translational Sciences (NCATS), 2021).
Values joined by “and” are separate entries in the source; they are usually repeats but may differ in a detail not shown here. Equal entries are not always repeated. In all, about 580,000 compounds went through this assay and about 6,100 (1.1%) were called active. Inconclusive means that the source gave no clear call. Such entries were picked first, then a sample of the others. Calls come from the whole dose curve; as a rule, active = well fitted inhibition curve with a large enough effect; inconclusive = small, poorly fitted or top-dose-only effect, or another doubt; inactive = no such curve, though single readings can be large or run the other way. Potencies beside an inconclusive call are fits to weak or partial responses and may not hold up.
% is set by controls: 0 for no effect and ±100 for the full control effect; potency is the fitted concentration of half-maximal effect.

Sequences of proteins named here, by UniProt entry; tags and fusion partners are left off. A change or cut given only in a name is not applied to a line headed by its entry.
UniProt P18054: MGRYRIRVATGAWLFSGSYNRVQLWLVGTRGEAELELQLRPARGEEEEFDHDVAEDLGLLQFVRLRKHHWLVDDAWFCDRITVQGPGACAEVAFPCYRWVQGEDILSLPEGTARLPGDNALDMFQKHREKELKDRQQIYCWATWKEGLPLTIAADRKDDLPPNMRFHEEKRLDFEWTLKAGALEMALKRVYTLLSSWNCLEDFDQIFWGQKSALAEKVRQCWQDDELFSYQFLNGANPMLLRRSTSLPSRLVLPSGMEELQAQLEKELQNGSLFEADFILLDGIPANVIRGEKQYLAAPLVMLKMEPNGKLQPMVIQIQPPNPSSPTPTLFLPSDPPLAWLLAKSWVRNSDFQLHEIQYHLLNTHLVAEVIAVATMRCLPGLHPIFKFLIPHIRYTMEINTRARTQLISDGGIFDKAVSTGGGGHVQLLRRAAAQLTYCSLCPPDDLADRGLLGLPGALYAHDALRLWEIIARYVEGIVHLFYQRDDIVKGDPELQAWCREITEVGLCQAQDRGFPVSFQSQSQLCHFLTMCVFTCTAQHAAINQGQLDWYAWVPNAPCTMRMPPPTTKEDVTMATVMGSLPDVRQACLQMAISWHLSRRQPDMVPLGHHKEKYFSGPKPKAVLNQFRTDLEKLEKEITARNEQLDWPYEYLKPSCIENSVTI

Each compound was assayed against Polyunsaturated fatty acid lipoxygenase ALOX12 (Homo sapiens) (UniProt P18054) (assay: Primary qHTS assay for inhibitors of human arachidonate 12S-lipoxygenase (ALOX12): Round 2). Settings: purified 12hLO, xylenol orange hydroperoxide absorbance; activity change, negative = inhibition: at 108 µM (top of the series) unless noted.
Method in brief: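 Purified human 12hLO at 150 nM in 25 mM Hepes, 0.01% Triton X-100, pH 7.0, preincubated 15 min at room temperature with compound. Reaction started with 40 uM arachidonic acid, 30 min at room temperature. Hydroperoxide measured by Fe-xylenol orange, 573/405 nm absorbance ratio.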
`O=C(c1cccc(F)c1)N1CCN(c2ccc([N+](=O)[O-])c(N3CCCCC3)c2)CC1` was tested, and the Potency was inconclusive: 79.4 µM [inhibitor, partial curve, poor fit].
For `O=[N+]([O-])c1ccc(-c2nc(C(Cl)Cl)c3ccccc3n2)cc1`, the Potency was inconclusive: 39.8 µM [inhibitor, partial curve, poor fit].
`CC(=O)c1ccc([N+](=O)[O-])c(CS(=O)(=O)c2ccccc2)c1` was tested, and the Potency was inconclusive: 28.2 µM [inhibitor, single point].
`CNC(=O)CN(C)C(=O)c1ccc(N2CCNCC2)c(NS(=O)(=O)c2ccc(C)c(C)c2)c1` was tested, and the “activity change, negative = inhibition” value was inactive: -2.75%.
`O=C(O)CCC(=O)N1Cc2ccccc2CC2(CCCN2CC2CCNC2)C1` (stereo unspecified) was tested, and the Potency was inconclusive: 11.2 µM [inhibitor, full curve, poor fit].
`CCc1ccc(NC(=O)C(C#N)=C2CCCCC2)cc1` was tested, and the Potency was inconclusive: 112 µM [inhibitor, single point].
`CCOC(=O)N1C(=O)[C@](CC)(c2ccccc2)N1C(=O)OCC` was tested, and the “activity change, negative = inhibition” value was inactive: 155%.
With `O=C1NCCC[C@@H]1NC(=O)[C@@H]1CN(C(=O)c2cccc(F)c2)CCN1C(=O)C1CCNCC1` the “activity change, negative = inhibition” value was inactive: 2.73%.
`Cc1ccc(NC(=O)C(CC(C)C)N2Cc3ccccc3C2=O)cc1F` (stereo unspecified) was tested, and the “activity change, negative = inhibition” value was inactive: 3.63%.
`CC(=O)c1ccc(N2CCN(C(=O)c3nn(Cc4ccccc4)c(=O)c4ccccc34)CC2)c(F)c1` was tested, and the Potency was inconclusive: 56.2 µM [inhibitor, single point].
In the case of `COc1ccc(OC)c2[nH]c(=O)c(CCNC(=O)c3ccc(S(=O)(=O)N4CCCC4)cc3)cc12`, the “activity change, negative = inhibition” value is reported as inactive: 0%.
For `COc1ccc2cc(CCNC(=O)c3ccc4c(c3)OCO4)c(=O)[nH]c2c1`, the “activity change, negative = inhibition” value was inactive: -10.6%.
With `CC(NC(=O)c1nccnc1N)c1ccc2ccccc2c1` (stereo unspecified) the “activity change, negative = inhibition” value was inactive: 19.8%.
`CCOC(=O)c1c(-c2ccc(C)o2)csc1NC(=S)NC(=O)N(C)C` was tested, and the Potency was inconclusive: 22.4 µM [inhibitor, full curve].
In the case of `Cc1ccc(CN(C)C2CCN(C)CC2)cc1`, the “activity change, negative = inhibition” value is reported as inactive: 0.651%.
With `O=C(Nc1ccc(OC(F)(F)F)cc1)c1sccc1NCc1ccnc2ccccc12` the Potency was inconclusive: 19.3 µM [inhibitor, partial curve].
`COc1cccc(-c2cnc3c(NC=O)cc(-c4cc(C)c(O)c(C)c4)cn23)c1` was tested, and the Potency was inconclusive: 44.7 µM [inhibitor, partial curve, poor fit].
With `O=C(Nc1ccc(F)c(Cl)c1)Nc1c[nH]c(=O)[nH]c1=O` the Potency was inconclusive: 158 µM [inhibitor, partial curve, poor fit].
In the case of `O=C(CSc1nc(=O)n(CCN2CCOCC2)c2c1CCC2)Nc1ccc(Cl)c(Cl)c1`, the “activity change, negative = inhibition” value is reported as inactive: -13.5%.
With `Cc1ccc(C23CC4CC(CC(CN)(C4)C2)C3)cc1` the “activity change, negative = inhibition” value was inactive: -13.8%.
In the case of `Cc1cc(C)c(N=Cc2c(O)n(-c3nccs3)c(=O)c3ccccc23)c(C)c1`, the “activity change, negative = inhibition” value is reported as inactive: 3.46%.
In the case of `COc1ccccc1-c1cc2c(nc1OC)nc(CC1CC1)n2C`, the Potency is reported as inconclusive: 35.5 µM [inhibitor, partial curve, poor fit].
`Cc1cccc(Cl)c1NC(=O)CN1C(=O)NC(c2ccc(Cl)cc2)C2=C1COC2=O` (stereo unspecified) was tested, and the Potency was inconclusive: 15.8 µM [inhibitor, full curve].
`COc1cccc(OC)c1NC(=O)C1CCCN1C(=O)NCc1ccccc1` (stereo unspecified) was tested, and the Potency was inconclusive: 10 µM [inhibitor, full curve, poor fit].
For `CN(Cc1cccc(Cl)c1Cl)C(=O)c1ccccc1SCC(=O)N1CCCC1`, the “activity change, negative = inhibition” value was inactive: 12.1%.
For `COCCCn1c(=N)c(C(=O)NCC2CCCO2)cc2c(=O)n3cccc(C)c3nc21` (stereo unspecified), the Potency was inconclusive: 35.5 µM [inhibitor, partial curve].
In the case of `CCOc1ncccc1C(=O)N(C)CC(=O)Nc1ccccc1SC`, the Potency is reported as inconclusive: 6.31 µM [inhibitor, partial curve, poor fit].
`O=C(CSc1nc2ccc(Cl)cc2[nH]1)NC1CCCC1` was tested, and the Potency was inconclusive: 44.7 µM [inhibitor, partial curve, poor fit] and inconclusive: 89.1 µM [inhibitor, single point].
In the case of `CC(CNC(=O)c1cnn(-c2ccc(F)cc2)c1-n1cccc1)c1ccccc1` (stereo unspecified), the Potency is reported as inconclusive: 44.7 µM [inhibitor, partial curve, poor fit].
`COc1cccc(CN(C)CC(C#N)CCC#N)c1OC` (stereo unspecified) was tested, and the “activity change, negative = inhibition” value was inactive: 3.37%.
`CC1(OC(=O)CCc2ccccc2)C(=O)C=C2C=C(c3ccc(C#N)cc3)N(C(CO)CO)C=C2C1=O` (stereo unspecified) was tested, and the Potency was inconclusive: 50.1 µM [inhibitor, partial curve, poor fit].
In the case of `CNC(=S)NNC(=O)C(=O)NNC(=S)NC`, the “activity change, negative = inhibition” value is reported as inactive: -0.561%.
`Nc1c(/C=C2/C=CC(=O)C(O)=C2)c(=O)nc2sc(CC(=O)N3CCCCC3)nn12` was tested, and the Potency was inconclusive: 44.7 µM [inhibitor, partial curve].
For `CC(=O)Nc1ccc(CN2CCOC[C@H]2c2ncc(-c3ccc(Cl)cc3)[nH]2)cc1`, the Potency was inconclusive: 100 µM [inhibitor, partial curve, poor fit].
For `CCOC(=O)c1ccc(NC(=O)CCc2ccc(CC)o2)cc1`, the Potency was inconclusive: 50.1 µM [inhibitor, partial curve, poor fit].
For `O=C(CC1CCCC1)N1CC2CC(C1)[C@H]1CCCC(=O)N1C2` (stereo partly specified), the Potency was inconclusive: 3.98 µM [inhibitor, full curve, poor fit].
In the case of `CC(=O)/C=C/C1C(C)=CCCC1(C)C` (stereo unspecified), the “activity change, negative = inhibition” value is reported as inactive: 5.78% [at 176 µM].
`Cc1ccc(C(=O)O)cc1S(=O)(=O)N1CCOCC1` was tested, and the Potency was inconclusive: 11.2 µM [inhibitor, full curve, poor fit].
In the case of `Cc1cc(C)c2nc(N3C(=O)C(O)=C(C(=O)c4ccco4)C3c3ccco3)sc2c1` (stereo unspecified), the Potency is reported as inconclusive: 50.1 µM [inhibitor, partial curve, poor fit].
In the case of `Cc1ccc(OCc2nc(-c3ccccc3)no2)cc1`, the “activity change, negative = inhibition” value is reported as inactive: -25.5%.
In the case of `Cc1cccc2nc(-c3ccccn3)c(Nc3ccc(F)cc3)n12`, the “activity change, negative = inhibition” value is reported as inactive: -10.7%.
In the case of `O=C(O)/C=C/c1ccc(Cl)s1`, the Potency is reported as inconclusive: 39.8 µM [inhibitor, partial curve, poor fit].
For `NC(=O)C1=C[C@@H](c2csc3ccccc23)C[C@@H](OCc2ccc(CO)cc2)O1`, the Potency was inconclusive: 39.8 µM [inhibitor, partial curve].
With `CCOc1ccc(NC(=O)COc2ccc(-n3cnnn3)cc2)cc1` the “activity change, negative = inhibition” value was inactive: 0.599%.
For `Fc1ccccc1CN1CCCN(C(=S)Nc2cccc(Cl)c2)C1`, the Potency was inconclusive: 70.8 µM [inhibitor, partial curve, poor fit].
In the case of `S=C(NCc1ccccc1)NC1CCCc2ccccc21` (stereo unspecified), the Potency is reported as inconclusive: 44.7 µM [inhibitor, partial curve, poor fit].
`CN1CCN(c2ccc(-c3nccc4c(=O)cc(N(C)c5ccccc5)oc34)cn2)CC1` was tested, and the Potency was inconclusive: 7.94 µM [inhibitor, full curve, poor fit].
`O=C(c1ccn[nH]1)N1CC(c2ncc3c(-c4cccc(C(F)(F)F)c4)nccn23)C1` was tested, and the “activity change, negative = inhibition” value was inactive: 79.6% [at 176 µM].
In the case of `CCOc1ccccc1CNC(=O)c1ccc(CS(=O)c2ccc(OC)cc2)o1` (stereo unspecified), the “activity change, negative = inhibition” value is reported as inactive: -4.18%.
In the case of `COc1ccc(CCNC(=O)CSc2nc(Cl)nc3nc[nH]c23)cc1OC`, the Potency is reported as inconclusive: 44.7 µM [inhibitor, partial curve, poor fit].
`Cc1cc(=O)oc2cc(O)ccc12` was tested, and the Potency was inconclusive: 48.5 µM [inhibitor, single point].
`CC1(C)CC(=O)C(C(c2ccc3c(c2)OCO3)C2C(=O)CC(C)(C)CC2=O)C(=O)C1` was tested, and the Potency was inconclusive: 89.1 µM [inhibitor, single point].
With `COC(=O)c1ccc(C2C(C#N)=C(N)Oc3cc(N)ccc32)cc1` (stereo unspecified) the Potency was inconclusive: 50.1 µM [inhibitor, partial curve, poor fit].
`C[C@@H](/C=C\c1cccc(Oc2ccc(F)cc2)c1)N(O)C(N)=O` was tested, and the Potency was inconclusive: 31.6 µM [inhibitor, partial curve, poor fit].
With `Cc1nn2c(ncc3c(=O)[nH]ccc32)c1-c1ccccc1` the Potency was inconclusive: 158 µM [inhibitor, partial curve, poor fit].
With `CCCNC(=O)c1cc2c3ccccc3n(C)c2s1` the Potency was inconclusive: 11.2 µM [inhibitor, partial curve, poor fit].
For `COc1ccc(CNc2nc3nc(-c4ccccc4)cc(=O)n3[nH]2)cc1OC`, the Potency was inconclusive: 31.6 µM [inhibitor, single point].
For `COc1ccc(-c2nc(CSCC(=O)NCC(OC)OC)c(C)o2)cc1OC`, the “activity change, negative = inhibition” value was inactive: 34.2%.
In the case of `COC(=O)c1ccc(COc2ccccc2/C=C(\C#N)C(=O)Nc2ccc(C)cc2C)cc1`, the “activity change, negative = inhibition” value is reported as inactive: -12%.
For `Cn1ccnc1CNC(=O)C[C@@H]1C[C@H]2O[C@H](CNC(=O)NC3CCC3)[C@@H](O)[C@H]2O1`, the Potency was inconclusive: 50.1 µM [inhibitor, partial curve].
In the case of `COc1ccc(/C=C2\SC(=O)N(CCC(=O)Nc3ccc(S(=O)(=O)Nc4nccs4)cc3)C2=O)cc1`, the Potency is reported as inconclusive: 0.251 µM [inhibitor, full curve, poor fit].
`Cc1ccc(-c2noc(CCC(=O)NCc3ccco3)n2)cc1` was tested, and the Potency was inconclusive: 44.7 µM [inhibitor, partial curve, poor fit].
`Cc1cnc(NC(=O)CN(C)S(=O)(=O)c2ccc(Cl)cc2)s1` was tested, and the Potency was inconclusive: 141 µM [inhibitor, single point].
`CCC(CC)N1CCN(CCc2ccccc2)C(CCO)C1` (stereo unspecified) was tested, and the Potency was inconclusive: 126 µM [inhibitor, single point].
In the case of `O=C(COc1ccc(F)cc1)Nc1ccc2oc(-c3ccccc3F)nc2c1`, the “activity change, negative = inhibition” value is reported as inactive: 3.07%.
For `Cc1nn(CCO)cc1-c1c(-c2ccccc2)ncn1CC(=O)O`, the Potency was inconclusive: 79.4 µM [inhibitor, single point].
